32 compounds from the supplement of paper PMC12872613 can be followed below.

Where a name gives a salt, the structure may show the parent alone. The list shows a part of the results. No stated cut-off is given here; in the data, active = 0.7 or more and inactive = the rest. Repeats are few or missing, and single values can be far off.

The subject of the assay is MiaPaCa-2 CLSA-25. Briefly: cell death relative to DMSO vehicle (fraction); higher = more cytotoxic. Conditions: 5 µM; treatment time 48 h; medium cystine 25 µM.
For `CCC(C)SSc1ncc[nH]1` (configuration not stated), the cell death is inactive: 0.634.

For `C=C(c1ccc(C(=O)O)cc1)c1cc2c(cc1C)C(C)(C)CCC2(C)C` [Bexarotene], the cell death is inactive: 0.633. Consider `C[C@H](O)C(=O)O` [L-Lactic acid], for which the cell death is inactive: 0.55. The figure for `O=C(Oc1ccc([N+](=O)[O-])cc1)N1CCC(C(O)(c2ccc3c(c2)OCO3)c2ccc3c(c2)OCO3)CC1` is active: 0.835; for `CC12CC3CC(C)(C1)CC(N)(C3)C2` [Memantine hydrochloride] it is inactive: 0.192.

For the compound `Cc1c(-c2ccnn2C)cc(C(=O)NCc2ccc(S(C)(=O)=O)cn2)c(=O)n1-c1cccc(C(F)(F)F)c1` [Alvelestat], the cell death is inactive: 0.165. As to `NS(=O)(=O)c1cc2c(cc1Cl)NCNS2(=O)=O` [Hydrochlorothiazide], the cell death was inactive: 0.227. The figure for `COc1ccc(C2C(C#N)=C(N)OC3=C2C(=O)CC(c2cccc4ccccc24)C3)cc1` (configuration not stated) is inactive: 0.0538; for `C[C@]12C=CC(=O)C=C1CC[C@@H]1[C@@H]2[C@@H](O)C[C@@]2(C)[C@H]1CC[C@]2(O)C(=O)COP(=O)(O)O` [Prednisolone phosphate sodium] it is inactive: 0.631; for `CC1(C)[C@@H](O)CC[C@]2(C)[C@H]3C(=O)C=C4[C@@H]5C[C@@](C)(C(=O)O)CC[C@]5(C)CC[C@@]4(C)[C@]3(C)CC[C@@H]12` [Enoxolone] it is inactive: 0.0445. For `NNC(=O)c1ccccn1` [2-Picolinyl hydrazide] the value was inactive: -0.0369; for `CN[C@H](CNC(=O)N1CCC[C@@H]([C@@H](OCCNC(=O)OC)c2cccc(Cl)c2)C1)C[C@H]1CCCOC1`, inactive: 0.208. For `CC1(C)O[C@@H]2[C@@H](CO[C@@]3(COS(N)(=O)=O)OC(C)(C)O[C@@H]23)O1` [Topiramate] the value was inactive: 0.145; for `COCCCOc1cc(C[C@@H](C[C@H](N)[C@@H](O)C[C@H](C(=O)NCC(C)(C)C(N)=O)C(C)C)C(C)C)ccc1OC` [Aliskiren hemifumarate], inactive: 0.251. `C1CCN2C[C@@H]3C[C@@H](CN4CCCC[C@@H]34)[C@H]2C1` [(-)-Sparteine sulfate pentahydrate]: the cell death is inactive: 0.131.

Turning to `COc1c(C)c2c(c(O)c1C/C=C(\C)CCC(=O)OCCN1CCOCC1)C(=O)OC2` [Mycophenolate Mofetil], the cell death was inactive: 0.0851.

On to `COc1ccc(N2C(=O)/C(=C\c3ccc([N+](=O)[O-])s3)SC2=S)cc1`, for which the cell death was active: 0.81. `CC(C)(O)CS(=O)(=O)Nc1ccc2c(c1)CCN(C(=O)COc1cccnc1)C2` [Nampt-IN-1]: the cell death is active: 0.72. The figure for `O=C1CCCC(=O)C1C(=O)c1ccc(C(F)(F)F)cc1[N+](=O)[O-]` [Nitisinone] is inactive: 0.057; for `O=C(CN1CCN(C(=O)c2ccco2)CC1)Nc1cc(C(F)(F)F)ccc1Cl` it is active: 0.71; for `NCCC(O)(P(=O)(O)O)P(=O)(O)O` [Pamidronate disodium salt] it is inactive: 0.662. On to `CC(C)(CCCCCC(O)CCCCCC(C)(C)C(=O)O)C(=O)O`, for which the cell death was inactive: 0.0597.

For `CCOc1ccc(Cc2cc([C@@H]3O[C@H](CO)[C@@H](O)[C@H](O)[C@H]3O)ccc2Cl)cc1` [Dapagliflozin], the cell death was inactive: 0.0602. For `COc1cc2c(cc1Cc1cccc(Cl)c1F)c(=O)c(C(=O)O)cn2[C@H](CO)C(C)C` [Elvitegravir] the value was active: 0.803; for `c1ccc(C2CN3CCSC3=N2)cc1` (configuration not stated) [Tetramisole hydrochloride], inactive: 0.148; for `Cc1c(C)c2c(c(C)c1O)CC[C@@](C)(CCC[C@H](C)CCC[C@H](C)CCCC(C)C)O2` [Vitamin E], inactive: 0.134. `C/C=C/C#CC#C/C=C/c1ccco1` [Atractylodin]: the cell death is inactive: 0.15. As for `Nc1nc(=O)c2nc(CNc3ccc(C(=O)N[C@@H](CCC(=O)O)C(=O)O)cc3)cnc2[nH]1` [Folic acid], the cell death is inactive: -0.0104.

For `O=C(O)[C@@H]1CCCCN1` [L-Pipecolic acid], the cell death was inactive: 0.0776.

On to `CC(=O)Oc1cccc2c1C(=O)c1c(OC(C)=O)cc(C(=O)O)cc1C2=O` [Diacerein], for which the cell death was inactive: -0.0372. As to `NC(=O)c1cnccn1` [Pyrazinamide], the cell death was inactive: 0.236.

As to `O=C1CCc2cc(OCCCCc3nnnn3C3CCCCC3)ccc2N1` [Cilostazol], the cell death is inactive: -0.00375.
